Among the data in publication PMC3206029 are binding values, retold here.

By UniProt entry, the sequences of proteins in these tests, tags left out. Where a name states a change or a piece, a line headed by the entry shows the natural chain unless it says otherwise.
UniProt Q14790: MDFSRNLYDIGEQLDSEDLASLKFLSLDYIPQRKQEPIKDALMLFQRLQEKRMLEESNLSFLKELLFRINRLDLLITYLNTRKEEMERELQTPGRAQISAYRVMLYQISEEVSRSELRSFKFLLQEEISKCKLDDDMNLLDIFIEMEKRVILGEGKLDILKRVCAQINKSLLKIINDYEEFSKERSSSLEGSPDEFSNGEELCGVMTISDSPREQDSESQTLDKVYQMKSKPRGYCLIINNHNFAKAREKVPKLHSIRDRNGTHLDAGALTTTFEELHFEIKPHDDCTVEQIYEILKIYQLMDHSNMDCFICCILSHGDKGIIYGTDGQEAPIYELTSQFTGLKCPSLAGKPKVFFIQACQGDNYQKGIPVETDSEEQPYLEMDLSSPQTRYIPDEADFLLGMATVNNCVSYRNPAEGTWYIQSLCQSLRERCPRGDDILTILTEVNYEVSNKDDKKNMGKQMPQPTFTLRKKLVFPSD

Assay [1] concerns the target caspase 8 with mutant DEDII-domain (DEDIIm) (UniProt Q14790). The assay is described as follows: co-IP; caspase 8 mutants (DEDIm, PBm, DEDIIm) transiently transfected into MIP/SP cells; co-IP with SPARC.
The target of assay [2] is caspase 8 with mutant DEDI-domain (DEDIm) (UniProt Q14790). The description is as above.

These are yes or no findings as the source states them, for the method shown. Binding seen in cells or lysates may run through a third protein. For some assays here: Binding calls can cover weak binding; strength is not graded here.

B1: SPARC overexpressed in MIP/SP cells (protein, UniProt P09486 18-303)
chain: APQQEALPDETEVVEETVAEVTEVSVGANPVQVEVGEFDDGAEETEEEVVAENPCQNHHCKHGKVCELDENNTPMCVCQDPTSCPAPIGEFEKVCSNDNKTFDSSCHFFATKCTLEGTKKGHKLHLDYIGPCKYIPPCLDSELTEFPLRMRDWLKNVLVTLYERDEDNNLLTEKQKLRVKKIHENEKRLEAGDHPVELLARDFEKNYNMYIFPVHWQFGQLDQHPIDGYLSHTELAPLRAPLIPMEHCTTRFFETCDLDNDKYIALDEWAGCFGIKQKDIDKDLVI
On to B1, for which the binding result is recorded as “binds” in assay [1] and “no binding” in assay [2].
